Source: the supplement of paper PMC11732987, “Enantioselective OTUD7B fragment discovery through chemoproteomics screening and high-throughput optimisation” (Communications Chemistry, 2025)
Some of the results follow. The data scatter; read single values as rough.

What was measured:
[1] = compound: ClCC(=O)N[C@@H]1CCCc2ccccc12; assay: log2 mean competition ratio of IA-DTB cysteine labelling (DMSO/compound) (log2 ratio); higher = stronger cysteine engagement by compound; settings: treatment time: 4 h, cell line lysate: HEK293T
Description: (§1)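 IA-DTB competitive cysteine chemoproteomics in HEK293T RIPA lysate. Lysates were treated with compound 29 or 30 at 50 or 200 µM for 4 h, then IA-DTB (500 µM, 1 h), trypsin-digested, NeutrAvidin-enriched and analysed by diaPASEF. Competition ratio = intensity DMSO / intensity compound (n=4 treated, n=64 DMSO); binding: mean log2 CR ≥ 1 and p ≤ 0.05 plus QC filters. Target is the cysteine site.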

[2] = compound: ClCC(=O)N[C@H]1CCCc2ccccc12; assay: as above; settings: treatment time: 4 h, cell line lysate: HEK293T
Description: as §1

Target	log2 mean competition ratio ([1]; 50 µM)	log2 mean competition ratio ([1]; 200 µM)	log2 mean competition ratio ([2]; 50 µM)	log2 mean competition ratio ([2]; 200 µM)
DOCK9 C628 (UniProt Q9BZ29)	-0.353	0.542		
DNMBP C1434 (UniProt Q6XZF7)	0.0426	0.255		
DOCK6 C1853 (UniProt Q96HP0)	-0.205	-0.553		
DNM1L C345 (UniProt O00429)	-0.193	-0.408		
DFFB C194 (UniProt O76075)	0.16	0.513		
DHX16 C486 (UniProt O60231)	-0.19	-0.0476		
DHX37 C638 (UniProt Q8IY37)	0.241	0.0726		
DNAJC21 C3 (UniProt Q5F1R6)	0.484	-0.0326		
DOK1 C389 (UniProt Q99704)	0.247	-0.115		
DHCR24 C499 (UniProt Q15392)	0.277	0.309		
DNAJC13 C149 (UniProt O75165)	0.106	-0.0805		
DHX15 C226 (UniProt O43143)	-0.28	0.0437		
DEPDC7 C129 (UniProt Q96QD5)	0.142	0.195		
DIAPH2 C159 (UniProt O60879)	0.00269	-0.0269		
DEPDC5 C1053 (UniProt O75140)	0.267	0.129		
DNMT1 C1191 (UniProt P26358)	-0.442	-0.18		
DHRS13 C28 (UniProt Q6UX07)	-0.102	0.228		
DNAAF2 C762 (UniProt Q9NVR5)	0.0154	-0.0859		
DLGAP5 C448 (UniProt Q15398)	0.472	0.182		
DICER1 C1553 (UniProt Q9UPY3)	-0.131	0.0545		
DNMT1 C1485 (UniProt P26358)	-0.146	0.104		
DIPK2A C236 (UniProt Q8NDZ4)	-0.154	0.288		
DOCK6 C1243 (UniProt Q96HP0)	0.00286	-0.116		
DIMT1 C84 (UniProt Q9UNQ2)	-0.178	-0.179		

2 neighbouring records out of the list so far, for reference:
Target	log2 mean competition ratio ([1]; 50 µM)	log2 mean competition ratio ([1]; 200 µM)	log2 mean competition ratio ([2]; 50 µM)	log2 mean competition ratio ([2]; 200 µM)
DOK1 C389 (UniProt Q99704)	0.247	-0.115		
DHCR24 C499 (UniProt Q15392)	0.277	0.309		

The results go on:

Target	log2 mean competition ratio ([1]; 50 µM)	log2 mean competition ratio ([1]; 200 µM)	log2 mean competition ratio ([2]; 50 µM)	log2 mean competition ratio ([2]; 200 µM)
DLG1 C378 (UniProt Q12959)	0.306	0.48		
DNM2 C86 (UniProt P50570)	-0.00559	0.132		
DHX30 C673 (UniProt Q7L2E3)	0.352			
DICER1 C1641 (UniProt Q9UPY3)	-0.0121	-0.122		
DNM1 C424 (UniProt Q05193)	0.258	-0.485		
DHRS4 C88 (UniProt Q9BTZ2)	-0.0785	0.0799		
DENND4B C815 (UniProt O75064)	-0.0853	-0.145		
DFFA C38 (UniProt O00273)	-0.168	-0.0512		
DNTTIP1 C156 (UniProt Q9H147)	-0.219	0.48		
DLST C66 (UniProt P36957)	-0.187	-0.213		
DOCK11 C1906	0.00923	-0.0579		
DNMT1 C1339 (UniProt P26358)	-0.144	0.0334		
DNAJC17 C38 (UniProt Q9NVM6)	0.165	-0.307		
DHRS1 C10 (UniProt Q96LJ7)	-0.325	0.175	0.301	0.124
DGKD C121	-0.128	0.0724	0.191	0.159
DHX30 C606 (UniProt Q7L2E3)	0.0156	-0.0632		
DNAJC13 C2181 (UniProt O75165)	-0.209	0.172		
DOCK9 C613 (UniProt Q9BZ29)	-0.267	-0.0211		
DNAJC13 C1474 (UniProt O75165)	-0.0844	-0.0762		
DIS3L C482 (UniProt Q8TF46)	-0.216	-0.144		
DPYSL3 C248 (UniProt Q14195)	-0.26	-0.167		
DNAJC2 C276 (UniProt Q99543)	0.0307	-0.0705		
DNPH1 C117	-0.0479	0.547		
DNAAF5_(C409,C409,C420,C420) (UniProt Q86Y56)	-0.199	0.067		-0.126

Target	log2 mean competition ratio ([1]; 50 µM)	log2 mean competition ratio ([1]; 200 µM)	log2 mean competition ratio ([2]; 50 µM)	log2 mean competition ratio ([2]; 200 µM)
DOCK4 C530	0.0201	-0.245		
DOCK6 C384 (UniProt Q96HP0)	-0.0427	-0.192		
DENND4A C1561 (UniProt Q7Z401)	0.0395	0.0196		
DOCK11 C615	0.25	-0.245	0.146	-0.0116
DICER1 C1197 (UniProt Q9UPY3)	0.383	0.0912		
DPP8 C611 (UniProt Q6V1X1)	-0.239	0.262		
DNM1L C361 (UniProt O00429)	-0.0481	-0.0905		
DOCK11 C797	-0.382	-0.0129		0.155
DFFA C21 (UniProt O00273)	0.0994	-0.506		
DENND4C C1113 (UniProt Q5VZ89)	0.203	0.00227		
DNAJC7 C175 (UniProt Q99615)	0.4	0.447	0.695	0.539
DICER1 C686 (UniProt Q9UPY3)	-0.08	-0.219	-0.0166	-0.261
DENND4C C763 (UniProt Q5VZ89)	0.165	-0.138		
DNAJC6 C268 (UniProt O75061)	-0.164	-0.00663	-0.261	-0.0179
DNMT3A C340 (UniProt Q9Y6K1)	0.0334	-0.185		0.0637
DHX57 C453 (UniProt Q6P158)	0.493	-0.314	0.273	-0.312
DHX40 C417 (UniProt Q8IX18)	0.0591	0.00842		
DHX57 C1349 (UniProt Q6P158)	-0.0843	-0.146		
DNMT3B C393 (UniProt Q9UBC3)	-0.159	-0.0435	-0.158	0.057
DNA2 C718 (UniProt P51530)	-0.198	0.295		
DMXL2 C1788 (UniProt Q8TDJ6)	-0.139	0.451		
DOP1A C2442 (UniProt Q5JWR5)	0.204	-0.13		-0.103
DNAJC13 C261 (UniProt O75165)	-0.252	0.0124		
